Test results taken from paper PMC10598275.
No constants are given. Whether binding was seen depends on the method and setting. Binding seen in cells or lysates may run through a third protein. Some binding calls cover weakened binding; strength is not graded here.

By UniProt entry, the sequences of proteins in these tests, tags left out.
UniProt Q05397: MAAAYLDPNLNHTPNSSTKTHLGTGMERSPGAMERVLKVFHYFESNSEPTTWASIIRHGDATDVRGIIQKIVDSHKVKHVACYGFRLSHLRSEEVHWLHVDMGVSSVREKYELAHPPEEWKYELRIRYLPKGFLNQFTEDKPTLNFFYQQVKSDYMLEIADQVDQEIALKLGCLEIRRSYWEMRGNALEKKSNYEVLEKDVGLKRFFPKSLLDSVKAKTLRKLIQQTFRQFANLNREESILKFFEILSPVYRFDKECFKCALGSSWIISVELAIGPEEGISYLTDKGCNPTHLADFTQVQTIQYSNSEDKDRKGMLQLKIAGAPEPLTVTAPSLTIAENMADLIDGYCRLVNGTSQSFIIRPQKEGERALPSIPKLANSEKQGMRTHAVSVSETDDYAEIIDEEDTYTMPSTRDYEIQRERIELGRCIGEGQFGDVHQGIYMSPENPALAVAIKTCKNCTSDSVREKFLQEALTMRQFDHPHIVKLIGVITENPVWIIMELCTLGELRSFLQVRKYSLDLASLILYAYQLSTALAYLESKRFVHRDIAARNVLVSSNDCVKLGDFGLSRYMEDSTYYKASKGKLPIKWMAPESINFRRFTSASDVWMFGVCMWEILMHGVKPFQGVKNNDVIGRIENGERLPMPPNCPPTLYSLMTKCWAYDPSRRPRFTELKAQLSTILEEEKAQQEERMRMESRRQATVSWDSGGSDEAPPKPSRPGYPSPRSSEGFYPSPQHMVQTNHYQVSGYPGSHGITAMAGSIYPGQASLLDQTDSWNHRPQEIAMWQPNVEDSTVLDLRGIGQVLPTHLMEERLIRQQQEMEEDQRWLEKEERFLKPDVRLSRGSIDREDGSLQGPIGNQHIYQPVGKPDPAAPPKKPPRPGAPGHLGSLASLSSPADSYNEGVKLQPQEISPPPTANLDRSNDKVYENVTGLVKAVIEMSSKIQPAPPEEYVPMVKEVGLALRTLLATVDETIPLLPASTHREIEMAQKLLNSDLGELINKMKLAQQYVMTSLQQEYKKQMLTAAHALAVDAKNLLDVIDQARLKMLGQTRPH

Target: protein tyrosine kinase 2 (PTK2) (human (endogenous in OVCAR3 and A2780)) (UniProt Q05397)
Test: co-IP; lysates of OVCAR3 and A2780 cells transfected with si-NRSN2-AS1 (or control), after MG132 (20 uM) for 6 h; incubated with anti-PTK2 or anti-IgG overnight, then beads 2 h at 4 °C; immunoblot for MG53

binding: binds
B1: mitsugumin 53 (MG53) (protein, UniProt Q6ZMU5 1-477)
chain: MSAAPGLLHQELSCPLCLQLFDAPVTAECGHSFCRACLGRVAGEPAADGTVLCPCCQAPTRPQALSTNLQLARLVEGLAQVPQGHCEEHLDPLSIYCEQDRALVCGVCASLGSHRGHRLLPAAEAHARLKTQLPQQKLQLQEACMRKEKSVAVLEHQLVEVEETVRQFRGAVGEQLGKMRVFLAALEGSLDREAERVRGEAGVALRRELGSLNSYLEQLRQMEKVLEEVADKPQTEFLMKYCLVTSRLQKILAESPPPARLDIQLPIISDDFKFQVWRKMFRALMPALEELTFDPSSAHPSLVVSSSGRRVECSEQKAPPAGEDPRQFDKAVAVVAHQQLSEGEHYWEVDVGDKPRWALGVIAAEAPRRGRLHAVPSQGLWLLGLREGKILEAHVEAKEPRALRSPERRPTRIGLYLSFGDGVLSFYDASDADALVPLFAFHERLPRPVYPFFDVCWHDKGKNAQPLLLVGPEGAEA
